From the supplement of paper PMC12067093, “Discovery and optimisation of a covalent ligand for TRIM25 and its application to targeted protein ubiquitination” (Chemical Science, 2025)
Some of the results follow.
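Further: competitive chemoproteomic profiling in live THP-1 cells with an iodoacetamide desthiobiotin (IA-DTB) probe, comparing probe-labelled peptide intensities in compound-treated cells against DMSO-treated controls.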

What follows are targets tested with CC1Cc2ccccc2N1C(=O)C1CCCN(C1)C(=O)CCl (mixture of isomers) [TRIM25 ligand 11 (diastereomer mixture)] (assay: probe-labelled cysteine peptide fold change vs DMSO (competition) (log2 fold change); higher = less target engagement (more negative = stronger competition)). Conditions: 10 µM; THP-1; incubation time: 4 h.
For “SMARCC2_Q8TAQ2_80_CFLDFK (UniProt Q8TAQ2)”, the “probe-labelled cysteine peptide fold change” value was -0.00468.
In the case of “SLC27A2_O14975_149_SLLHCFQCCGAK (UniProt O14975)”, the “probe-labelled cysteine peptide fold change” value was 0.128.
For “SNRNP200_O75643_1592_FLHCTEK (UniProt O75643)”, the “probe-labelled cysteine peptide fold change” value was 0.133.
In the case of “SMARCC2_Q8TAQ2_486_LNPQEYLTSTACR (UniProt Q8TAQ2)”, the “probe-labelled cysteine peptide fold change” value was -0.0315.
“SLPI_P03973_51+57_YKKPECQSDWQCPGK (UniProt P03973)” was tested, and the “probe-labelled cysteine peptide fold change” value was -0.301.
“SLK_Q9H2G2_552_DVISNTSDVIGTCEAADVAQK (UniProt Q9H2G2)” was tested, and the “probe-labelled cysteine peptide fold change” value was 0.0783.
“SLC39A8_Q9C0K1_113_FSVICPAVLQQLNFHPCEDRPK (UniProt Q9C0K1)” was tested, and the “probe-labelled cysteine peptide fold change” value was 0.0446.
“SNRNP200_O75643_428_CQLPDGSFR (UniProt O75643)” was tested, and the “probe-labelled cysteine peptide fold change” value was -0.074.
“SLC7A1_P30825_628_TPDGNLDQCK (UniProt P30825)” was tested, and the “probe-labelled cysteine peptide fold change” value was -0.151.
“SMAD4_Q13485_127_CDSVCVNPYHYER (UniProt Q13485)” was tested, and the “probe-labelled cysteine peptide fold change” value was 0.000739.
For “SNRNP200_O75643_1702_CVIMCQGSKK (UniProt O75643)”, the “probe-labelled cysteine peptide fold change” value was -0.266.
With “SMARCA4_P51532_1046_ICNHPYMFQHIEESFSEHLGFTGGIVQGLDLYR (UniProt P51532)” the “probe-labelled cysteine peptide fold change” value was 0.0792.
For “SMYD5_Q6GMV2_101_LTGKPGQVLPHPELCTVR (UniProt Q6GMV2)”, the “probe-labelled cysteine peptide fold change” value was -0.0205.
In the case of “SMARCC2_Q8TAQ2_635_TQDECILHFLR (UniProt Q8TAQ2)”, the “probe-labelled cysteine peptide fold change” value was 0.00815.
For “SMC4_Q9NTJ3_260_GQTEHDEGMLEYLEDIIGCGR (UniProt Q9NTJ3)”, the “probe-labelled cysteine peptide fold change” value was 0.0113.
For “SMC2_O95347_630_AMEFVFGTTFVCDNMDNAK (UniProt O95347)”, the “probe-labelled cysteine peptide fold change” value was 0.107.
In the case of “SLFN13_Q68D06_884_TADPAILPNILICLASR (UniProt Q68D06)”, the “probe-labelled cysteine peptide fold change” value was 0.134.
“SMCR8_Q8TEV9_644_DNSCEGFPAYELDPSHLLASR (UniProt Q8TEV9)” was tested, and the “probe-labelled cysteine peptide fold change” value was 0.161.
For “SMARCA5_O60264_976_ENVYDELRQCIR (UniProt O60264)”, the “probe-labelled cysteine peptide fold change” value was -0.194.
In the case of “SMC1A_Q14683_613+619_ALQYACGNALVCDNVEDARR (UniProt Q14683)”, the “probe-labelled cysteine peptide fold change” value was -0.173.
“SMARCC1_Q92922_761_VDPTYGLESSCIAGTGPDEPEK (UniProt Q92922)” was tested, and the “probe-labelled cysteine peptide fold change” value was 0.3.
“SMARCC1_Q92922_761_VDPTYGLESSCIAGTGPDEPEKLEGAEEEK (UniProt Q92922)” was tested, and the “probe-labelled cysteine peptide fold change” value was -0.397.
In the case of “SLC44A1_Q8WWI5_113_SVALCVAACPR (UniProt Q8WWI5)”, the “probe-labelled cysteine peptide fold change” value was 0.0704.
“SNRNP200_O75643_2011_FCNRYPNIELSYEVVDK (UniProt O75643)” was tested, and the “probe-labelled cysteine peptide fold change” value was -0.0643.
With “SMCHD1_A6NHR9_1445_IKDNDKEDGCFYFR (UniProt A6NHR9)” the “probe-labelled cysteine peptide fold change” value was -0.209.
“SND1_Q7KZF4_826+837_DIQNTQCLLNVEHLSAGCPHVTLQFADSK (UniProt Q7KZF4)” was tested, and the “probe-labelled cysteine peptide fold change” value was 0.107.
In the case of “SMC5_Q8IY18_726_LMEQDTCNLEEEERK (UniProt Q8IY18)”, the “probe-labelled cysteine peptide fold change” value was -0.0745.
“SLFN11_Q7Z7L1_791_YLTVEQIMTCVADTCRR (UniProt Q7Z7L1)” was tested, and the “probe-labelled cysteine peptide fold change” value was -0.077.
For “SNRNP200_O75643_1359_TICAEFAILR (UniProt O75643)”, the “probe-labelled cysteine peptide fold change” value was 0.00479.
“SMC5_Q8IY18_393_TTENCENLQPQIDAITNDLRR (UniProt Q8IY18)” was tested, and the “probe-labelled cysteine peptide fold change” value was -0.0378.
With “SMS_P52788_229_MVTMVEIDQMVIDGCKK (UniProt P52788)” the “probe-labelled cysteine peptide fold change” value was -0.384.
With “SMC1A_Q14683_1210_AESLIGVYPEQGDCVISK (UniProt Q14683)” the “probe-labelled cysteine peptide fold change” value was -0.0856.
“SLK_Q9H2G2_204_DSFIGTPYWMAPEVVMCETSK (UniProt Q9H2G2)” was tested, and the “probe-labelled cysteine peptide fold change” value was -0.142.
In the case of “SMURF2_Q9HAU4_393_QELSQQQPQAGHCR (UniProt Q9HAU4)”, the “probe-labelled cysteine peptide fold change” value was -0.228.
With “SMC1A_Q14683_613_ALQYACGNALVCDNVEDARR (UniProt Q14683)” the “probe-labelled cysteine peptide fold change” value was 0.255.
In the case of “SNRNP200_O75643_588_EEISATQIIVCTPEK (UniProt O75643)”, the “probe-labelled cysteine peptide fold change” value was 0.232.
